This passage reports binding results from article doi:10.1101/2022.10.16.512122.

By UniProt entry, the sequences of proteins in these tests, tags left out. Where a name states a change or a piece, a line headed by the entry shows the natural chain unless it says otherwise. Chains listed by the source or under a name are the forms on record and can include a tag or linker.
Orb2A (Q9VSR3, form named): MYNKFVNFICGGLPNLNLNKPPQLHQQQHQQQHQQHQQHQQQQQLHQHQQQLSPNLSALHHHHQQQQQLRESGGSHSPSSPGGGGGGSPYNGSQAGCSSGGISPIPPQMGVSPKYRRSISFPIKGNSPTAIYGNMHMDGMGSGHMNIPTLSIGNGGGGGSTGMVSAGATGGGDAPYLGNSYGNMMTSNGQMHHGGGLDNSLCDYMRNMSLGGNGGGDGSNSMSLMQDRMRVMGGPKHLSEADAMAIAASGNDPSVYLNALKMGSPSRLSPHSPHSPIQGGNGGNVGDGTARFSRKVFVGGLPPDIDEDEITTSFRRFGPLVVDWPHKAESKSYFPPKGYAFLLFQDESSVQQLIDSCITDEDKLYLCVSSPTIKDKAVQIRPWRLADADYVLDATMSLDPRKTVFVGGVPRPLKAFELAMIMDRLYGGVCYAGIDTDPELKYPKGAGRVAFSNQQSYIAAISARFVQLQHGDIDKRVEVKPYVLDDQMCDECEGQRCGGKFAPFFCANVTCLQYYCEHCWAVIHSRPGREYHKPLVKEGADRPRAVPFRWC
UniProt Q24133: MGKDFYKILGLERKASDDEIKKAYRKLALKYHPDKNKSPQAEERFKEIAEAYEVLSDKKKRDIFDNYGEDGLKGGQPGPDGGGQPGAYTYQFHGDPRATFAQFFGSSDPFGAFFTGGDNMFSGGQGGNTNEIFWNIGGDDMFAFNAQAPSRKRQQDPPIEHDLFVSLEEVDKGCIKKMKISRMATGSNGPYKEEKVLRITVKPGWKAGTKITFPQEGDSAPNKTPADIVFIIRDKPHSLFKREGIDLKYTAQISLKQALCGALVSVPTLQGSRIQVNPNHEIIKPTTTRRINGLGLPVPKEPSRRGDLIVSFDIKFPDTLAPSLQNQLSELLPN
UniProt P29843: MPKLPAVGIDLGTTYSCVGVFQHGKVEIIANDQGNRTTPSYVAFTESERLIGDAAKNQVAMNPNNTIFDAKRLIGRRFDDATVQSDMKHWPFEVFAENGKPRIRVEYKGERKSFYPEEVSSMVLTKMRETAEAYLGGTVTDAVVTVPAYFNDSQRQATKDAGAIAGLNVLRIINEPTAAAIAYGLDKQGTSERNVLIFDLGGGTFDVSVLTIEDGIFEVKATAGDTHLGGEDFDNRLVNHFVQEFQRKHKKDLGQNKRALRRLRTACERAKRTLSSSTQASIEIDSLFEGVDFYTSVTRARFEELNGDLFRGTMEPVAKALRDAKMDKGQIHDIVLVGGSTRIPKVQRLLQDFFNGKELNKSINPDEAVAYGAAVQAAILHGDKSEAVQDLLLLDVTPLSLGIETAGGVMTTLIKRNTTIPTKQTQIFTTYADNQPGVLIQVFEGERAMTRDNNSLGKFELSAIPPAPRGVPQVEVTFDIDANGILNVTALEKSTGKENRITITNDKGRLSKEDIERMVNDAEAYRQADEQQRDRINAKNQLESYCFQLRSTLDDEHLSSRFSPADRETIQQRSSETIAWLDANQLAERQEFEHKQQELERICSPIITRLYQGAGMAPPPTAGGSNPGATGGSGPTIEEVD
UniProt P11147: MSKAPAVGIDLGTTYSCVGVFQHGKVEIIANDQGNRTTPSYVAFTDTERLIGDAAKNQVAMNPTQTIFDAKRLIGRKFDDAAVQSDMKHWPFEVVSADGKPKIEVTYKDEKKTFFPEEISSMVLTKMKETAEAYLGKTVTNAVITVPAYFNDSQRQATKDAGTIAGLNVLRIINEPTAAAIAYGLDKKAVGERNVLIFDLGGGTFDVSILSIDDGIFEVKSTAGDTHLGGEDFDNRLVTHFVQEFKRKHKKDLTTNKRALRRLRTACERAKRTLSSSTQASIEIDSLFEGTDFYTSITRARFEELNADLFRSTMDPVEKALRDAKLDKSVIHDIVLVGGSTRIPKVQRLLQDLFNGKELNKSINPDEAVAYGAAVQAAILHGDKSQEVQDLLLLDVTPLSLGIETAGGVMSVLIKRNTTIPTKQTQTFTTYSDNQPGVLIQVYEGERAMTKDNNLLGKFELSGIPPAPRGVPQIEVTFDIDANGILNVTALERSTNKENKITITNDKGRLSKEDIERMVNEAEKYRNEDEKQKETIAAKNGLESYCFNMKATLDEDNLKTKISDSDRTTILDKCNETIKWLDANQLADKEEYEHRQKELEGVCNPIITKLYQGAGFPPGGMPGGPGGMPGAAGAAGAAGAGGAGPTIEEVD
UniProt P82910: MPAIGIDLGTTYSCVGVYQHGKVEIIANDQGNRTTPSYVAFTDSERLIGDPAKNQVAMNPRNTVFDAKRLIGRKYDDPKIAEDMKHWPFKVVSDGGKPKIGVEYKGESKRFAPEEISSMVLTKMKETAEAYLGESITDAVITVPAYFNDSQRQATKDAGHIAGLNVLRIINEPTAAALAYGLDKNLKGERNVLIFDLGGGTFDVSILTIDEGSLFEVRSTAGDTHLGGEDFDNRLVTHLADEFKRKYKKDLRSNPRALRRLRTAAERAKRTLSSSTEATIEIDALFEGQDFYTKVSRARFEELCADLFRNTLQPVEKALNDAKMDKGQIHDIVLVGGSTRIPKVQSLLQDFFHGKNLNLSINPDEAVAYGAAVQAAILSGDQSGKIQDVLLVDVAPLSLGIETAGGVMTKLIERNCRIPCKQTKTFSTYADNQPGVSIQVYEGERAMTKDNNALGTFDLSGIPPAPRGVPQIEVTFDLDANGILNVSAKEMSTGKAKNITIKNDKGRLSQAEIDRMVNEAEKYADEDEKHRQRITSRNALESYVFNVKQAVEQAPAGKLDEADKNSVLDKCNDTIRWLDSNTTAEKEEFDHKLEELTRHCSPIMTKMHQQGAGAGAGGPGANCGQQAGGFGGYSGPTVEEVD

In this assay the target is Orb2A (Drosophila) (UniProt Q9VSR3). The assay is described as follows: co-IP.

Results are given in words; binding and its absence hold for the method and conditions named. In cells and extracts the contact can be indirect. Some binding calls cover weakened binding; strength is not graded here. Sequences can lack the tags named with a protein.

Regarding DnaJ1-HA (from UniProt Q24133 1-334), the binding entry is reported as “no binding”.

For the molecule “Hsc70-1-Flag (from UniProt P29843 1-641)”, the binding result is reported as “binds”.

Consider “Hsc70-4-Flag (from UniProt P11147 1-651)”, for which the binding result is “binds”.

“Hsp70Aa-Flag (from UniProt P82910 1-642)”: the binding entry is reported as “binds”.

B1: CG4164-HA (protein, UniProt Q9VPQ2 23-354)
chain: GRDFYKILNVKKNANTNEVKKAYRRLAKELHPDKNKDDPDASTKFQDLGAAYEVLSNPDKRKTYDRCGEECLKKEGMMDHGGDPFSSFFGDFGFHFGGDGQQQDAPRGADIVMDLYVSLEELYSGNFVEIVRNKPVTKPASGTRKCNCRQEMVTRNLGPGRFQMIQQTVCDECPNVKLVNEERTLEIEVEQGMVDGQETRFVAEGEPHIDGEPGDLIVRVQQMPHPRFLRKNDDLYTNVTISLQDALVGFSMEIKHLDGHLVPVTREKVTWPGARIRKKGEGMPNFENNNLTGNLYITFDVEFPKKDLTEEDKEALKKILDQSSINRIYNGL
Regarding B1, the binding entry is on record as “binds”.
